From PubChem BioAssay AID2685 (National Center for Advancing Translational Sciences (NCATS), 2010)
Among all 320,000 compounds or so, about 2,100 (0.66%) were called active. Inconclusive results, whose numbers are uncertain, are shown with a selection of clear calls. Calls come from the whole dose curve; as a rule, active = well fitted inhibition curve with a large enough effect in the signal ratio, with a control signal flat (not every such curve was filed as active); inconclusive = small, poorly fitted or top-dose-only effect, or effect the other way, or a change in a side signal; inactive = flat fitted curve, though single readings scatter; the % refers to the signal ratio. Potencies beside an inconclusive call are fits to weak or partial responses and may not hold up.

Assay: qHTS Assay for Lipid Storage Modulators in Drosophila S3 Cells
Details: BODIPY lipid droplet fluorescence, 18-24 h, cells fed with added oleic acid; lipid storage change, negative = inhibition: at 46.1 µM (top of the series) unless noted
Method in brief: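 Drosophila S3 cells got compounds at several concentrations plus oleic acid (400 uM solution). Laser-scanning cytometry with 488 nm excitation read lipid droplets at 500-530 nm and cells at 575-640 nm. Percent activity was relative to 20 uM Triacsin C.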
% is set by controls: 0 for no effect and ±100 for the full control effect; potency is the fitted concentration of half-maximal effect.

SMILES	Potency	lipid storage change, negative = inhibition
CCN(CC)c1ccc(/C=C2/C(=O)ON=C2C)cc1	active: 9.2 µM	
CCN(C(=O)C1CCCN(c2nc(-c3ccc(OC)cc3)no2)C1)c1ccccc1F (stereo unspecified)		inconclusive: -27.6%
COc1ccccc1/C=C(/NC(=O)c1ccccc1)C(=O)NCCCn1ccnc1	inconclusive: 0.103 µM [activator, full curve, poor fit]	
CC(CN1CCN(C)CC1)OC(=O)c1cccc(Cl)c1 (stereo unspecified)		inconclusive: 7.24%
COc1ccccc1N1CCN(C(=O)c2ccc3[nH]c4c(c3c2)CC(C)CC4)CC1 (stereo unspecified)		inconclusive: -49.3%
Cn1c(N)c(C(=O)CSc2nnc(NC3CCCCC3)s2)c(=O)n(C)c1=O		inconclusive
O=C(C1CCCC1)N1CCC(CC2CC(c3cccc(Br)c3)=NO2)(C(=O)NCC2CCCCC2)CC1 (stereo unspecified)	inconclusive: 29.1 µM [falling, single point]	
Cc1cc(OC(C)C(=O)NCc2ccccn2)c2c(C)c(Cc3ccccc3)c(=O)oc2c1 (stereo unspecified)	inconclusive: 25.9 µM [falling, single point]	
COc1ccccc1-n1c(SCC(=O)NCc2ccc3c(c2)OCO3)nc2cc([N+](=O)[O-])ccc21	inconclusive: 1.16 µM [activator, full curve]	
C=CCN(c1ccccc1OC)S(=O)(=O)c1cccc(C(=O)OCC(=O)c2c[nH]c3ccccc23)c1	inconclusive: 0.13 µM [falling, full curve, poor fit]	
CCn1c(O)c(C(C#N)=C2N=c3ccccc3=N2)c2ccccc21		inactive
CS(=O)(=O)NCCSCc1ccco1		inconclusive: 37.6%
Cc1ccc(NC(=S)NC(=O)C2CCC2)cc1C	inconclusive: 8.2 µM [activator, partial curve]	
C[N+]1(CCCOC(=O)C2(c3ccccc3)CCCC2)CCOCC1		inconclusive: -12.5%
CN1C=CC=C/C1=C1\SC(=S)N(CC(=O)O)C1=O		inconclusive: 33.3%
CN1C[C@@H]2C(c3ccc(Cl)nc3)C3(c4cccnc4)CC2(C3)[C@H]1c1ccccc1 (stereo partly specified)		inconclusive: 11.9%
CCCCOCCCNC(=O)C1CCCCC1	inconclusive: 11.6 µM [falling, partial curve]	
Cc1ccc(S(=O)(=O)N2CCC(C(=O)N[C@@H](C)C(=O)NC3CCS(=O)(=O)C3)CC2)cc1 (stereo partly specified)		inconclusive: 0.0688%
COc1ccc(Cc2nnn(CC(=O)O)n2)cc1		inconclusive: -38%
N/C(=N\OC(=O)c1ccc([N+](=O)[O-])cc1Cl)c1ccccn1		inconclusive: -78.2%
Nc1c(C(=O)NCCN2CCOCC2)c2nc3ccccc3nc2n1-c1ccccc1	inconclusive: 0.0291 µM [activator, full curve, poor fit]	
C=C(C)COc1ccc(-c2nc(N)ncc2-c2ccc(OC)cc2)c(O)c1	inconclusive: 29.1 µM [falling, single point]	
COCCSc1nnc(NS(=O)(=O)Cc2ccccc2)s1	inconclusive: 0.146 µM [falling, full curve, poor fit]	
CC1=C(C#N)C(NC(=O)c2ccc(C)cc2)(C(F)(F)F)C(=O)N1 (stereo unspecified)		inconclusive: 8.39%
CCN(Cc1nc(-c2ccc(OC)c(OC)c2)no1)C(=O)c1ccc2c(c1)OCO2	inconclusive: 0.651 µM [falling, single point]	
O=C1Nc2ccccc2OCc2c1cccc2[N+](=O)[O-]		inconclusive: 47.4%

SMILES	Potency	lipid storage change, negative = inhibition
Cc1ccc(CSCC(=O)N(C)CC(=O)Nc2ccc(Br)cc2C)cc1		inconclusive: 2.32%
COc1ccc(NC(=O)CN(C)CC(=O)Nc2cccc(C(F)(F)F)c2)cc1		inconclusive: -6.48%
COc1ccc(NC(=O)c2cc(=O)[nH]c(=O)[nH]2)cc1S(=O)(=O)Nc1ccccc1Cl		inconclusive: 26.7%
O=C(c1ccc(NC(=S)NCc2ccc(Cl)cc2)cc1)N1CCCCC1		inconclusive: 41.1%
O=c1nc(Nc2cccc(Cl)c2)oc2cc(Cl)oc(=O)c12		inconclusive: 14.7%
CCc1ccc(CN2CCCC(CCC(=O)N3CCN(c4ccccn4)CC3)C2)o1 (stereo unspecified)		inactive
Cc1ccc(NC(=O)/C(Cl)=C\c2ccccc2)cc1		inconclusive: 16.1%
COc1ccc(-c2c(C)oc3c(CN4CCCCC4C)c(O)ccc3c2=O)cc1OC (stereo unspecified)		inconclusive: -2.77%
Cc1sc2nc(C(C)Sc3n[nH]c(N)n3)[nH]c(=O)c2c1C (stereo unspecified)		inconclusive: 28%
C=CCOC(=O)c1c(C)nc2cc3c(cc2c1C)OCO3		inconclusive: -39.9%
Cc1[nH]c2ccccc2c1SCC(=O)N1CCCc2ccccc21		inconclusive: 41.1%
O=C(O)c1cccc(Nc2nc(N3CCOCC3)nc(N3CCOCC3)n2)c1	inconclusive: 29.1 µM [cytotoxic, single point]	
Cc1ccc(S(=O)(=O)NC(C)(C)C)cc1C(=O)OCC(=O)N1CCCC1=O		inconclusive: 12.6%
COc1ccc(CCNCC(=O)Nc2ccc(C(=O)N3CCCCC3)cc2)cc1		inconclusive: -92.2%
CC/C=C(/NC(C)=O)c1ccccc1		inconclusive: 17.9%
O=C(Cc1ccccc1)NC(c1ccco1)c1c(O)ccc2ccccc12 (stereo unspecified)		inconclusive: -13.8%
CS(=O)(=O)N1CCc2cc(-c3csc(NC(=O)Cc4ccccc4)n3)ccc21	inconclusive: 16.4 µM [falling, single point]	
CC(C)(C)C(=O)Nc1ccc(C(=O)COC(=O)C2CC2)cc1		inconclusive
CCC1(c2ccc(F)cc2)NC(=O)N(CC(=O)N2CCOCC2)C1=O (stereo unspecified)		inactive
CCN(CC)C(=O)COc1ccc2c3c(c(=O)oc2c1)CCCC3		inconclusive: 38.3%
CCc1ccccc1NC(=O)NC(C)c1ccc2c(c1)OCO2 (stereo unspecified)		inconclusive: 5.91%
CC(=O)OCc1c(C(F)(F)F)nn(C)c1Oc1cccc(C(F)(F)F)c1		inconclusive: 2.13%
COc1ccc(S(=O)(=O)Nc2c(C)cc(C)cc2C)c2cccnc12		inconclusive: 77.2%
COc1ccc(S(=O)(=O)N(C)CC(=O)N2CCC(C(N)=O)CC2)cc1	active: 14.6 µM	
CCCCN(C(=O)CCC(=O)Nc1cc(C)on1)C(C(=O)NC1CCCC1)c1ccc(OC)cc1 (stereo unspecified)	inconclusive: 6.51 µM [activator, single point]	
O=C(/C=C/c1c(F)cccc1Cl)N1CCc2ccccc2C1		inconclusive: -54.6%

Three compounds drawn at random from those above:
SMILES	Potency	lipid storage change, negative = inhibition
CCN(CC)C(=O)COc1ccc2c3c(c(=O)oc2c1)CCCC3		inconclusive: 38.3%
CC(=O)OCc1c(C(F)(F)F)nn(C)c1Oc1cccc(C(F)(F)F)c1		inconclusive: 2.13%
Cc1ccc(NC(=O)/C(Cl)=C\c2ccccc2)cc1		inconclusive: 16.1%

Further structures follow:

SMILES	Potency	lipid storage change, negative = inhibition
COC(=O)C1=C(C)Nc2nc(SCc3ccccc3)[nH]c(=O)c2C1c1cccs1 (stereo unspecified)	inconclusive: 18.4 µM [activator, single point]	
CCOC(=O)/C(C#N)=C/C1=C(N2CCOCC2)CC(C)(C)OC1		inconclusive: 7.84%
NC(=O)c1ccccc1OCC(=O)N1CCCc2ccccc21		inconclusive: -21.9%
NS(=O)(=O)c1ccc(CCNC2CC(=O)N(Cc3ccccc3)C2=O)cc1 (stereo unspecified)		inconclusive: 18.5%
COc1ccccc1N1CCN(C(=O)c2cc3c(=O)n(C)c4ccccc4c3n2C)CC1		inconclusive: 56.9% [activator]
COc1ccccc1N(CC(=O)Nc1c(C)cccc1C)S(C)(=O)=O	inconclusive: 6.51 µM [activator, single point]	
CCN(CC)S(=O)(=O)c1cccc(C(=O)NCC(=O)OCC(=O)NCc2ccccc2)c1	inconclusive: 11.6 µM [falling, partial curve]	
COc1ccc(-n2ncc(C(=O)NC3CC3)c2C2CCN(C(=O)OC(C)(C)C)CC2)cc1	active: 9.2 µM	
COc1ccc(-c2nc(N)n(C(=O)c3ccc(C)cc3)n2)cc1	inconclusive: 25.9 µM [activator, single point]	
COc1ccccc1NC(=O)CCS(=O)(=O)c1cc2c(cc1Cl)NC(=O)CO2		inconclusive: -84.1%
CC(C)CC(c1nnnn1CC1CCCO1)N1CCN(c2nc3ccccc3s2)CC1 (stereo unspecified)		inconclusive: 24.4%
Cc1ccc(C(=O)NCCSc2c(C)[nH]c3ccccc23)cc1[N+](=O)[O-]		inconclusive: 32.3%
Cc1ccc(C(=O)OCC(=O)c2c[nH]c3ccccc23)cc1S(=O)(=O)N1CCCCC1		inconclusive: 25.5%
CCOCCCNC(=O)NC12CC3CC(CC(C3)C1)C2	inconclusive: 2.91 µM [falling, full curve, poor fit]	
COc1cc(C)nc(Oc2ccc(OCc3ccccc3)nn2)n1	inconclusive: 7.31 µM [rising, partial curve, poor fit]	
Cc1ccc[n+](-c2nc([O-])sc2/C=N/Nc2ccc([N+](=O)[O-])cc2)c1		inconclusive: 13.2%
CC(C)[C@H](NC(=O)C1CCN(S(=O)(=O)c2ccccc2)CC1)C(=O)NCc1ccncc1		inconclusive: 35.2%
COc1ccc(NC(=O)CSc2nnc(-c3cccs3)n2Cc2ccco2)cc1OC	inconclusive: 0.651 µM [activator, full curve, poor fit]	
COc1ccc(CCN2CC(C(=O)NCc3c(C)n[nH]c3C)CCC2=O)cc1 (stereo unspecified)		inconclusive: -29.3%
COCCN(C(=O)c1ccccc1F)c1nnc(-c2ccc(OC)cc2)s1	active: 18.4 µM	
Cc1cc(C(=O)NNC(=O)c2ccccc2F)c2ccccc2n1		inconclusive: 27.4%
CCOC(=O)C1CCN(c2cc(=O)n(Cc3ccc(F)cc3)c(=O)[nH]2)CC1		inconclusive: -29.4%
COC(=O)Cn1c(C)c(C(C)=O)c(C(C)=O)c1C		inconclusive: 10.5%
COc1cc2c(c(OC)c1OC)-c1c(cc3c(c1OC)OCO3)C1OC2[C@@H](C)[C@H]1C (stereo partly specified)		inconclusive: -13.3%

Molecules listed so far that have a tert-butyl group:
SMILES	Potency	lipid storage change, negative = inhibition
Cc1ccc(S(=O)(=O)NC(C)(C)C)cc1C(=O)OCC(=O)N1CCCC1=O		inconclusive: 12.6%
CC(C)(C)C(=O)Nc1ccc(C(=O)COC(=O)C2CC2)cc1		inconclusive
COc1ccc(-n2ncc(C(=O)NC3CC3)c2C2CCN(C(=O)OC(C)(C)C)CC2)cc1	active: 9.2 µM	
